Experimental data as given in US20140295452A1 (PIERRE FABRE MEDICAMENT, published 2014).
These are yes or no findings as the source states them, for the method shown. Some results given as binding are weak or reduced against the parent protein; the word gives no strength.

The chains behind the UniProt entries cited, without tags or fusion partners. Residues count along the entry.
UniProt P08581, residues 25-932: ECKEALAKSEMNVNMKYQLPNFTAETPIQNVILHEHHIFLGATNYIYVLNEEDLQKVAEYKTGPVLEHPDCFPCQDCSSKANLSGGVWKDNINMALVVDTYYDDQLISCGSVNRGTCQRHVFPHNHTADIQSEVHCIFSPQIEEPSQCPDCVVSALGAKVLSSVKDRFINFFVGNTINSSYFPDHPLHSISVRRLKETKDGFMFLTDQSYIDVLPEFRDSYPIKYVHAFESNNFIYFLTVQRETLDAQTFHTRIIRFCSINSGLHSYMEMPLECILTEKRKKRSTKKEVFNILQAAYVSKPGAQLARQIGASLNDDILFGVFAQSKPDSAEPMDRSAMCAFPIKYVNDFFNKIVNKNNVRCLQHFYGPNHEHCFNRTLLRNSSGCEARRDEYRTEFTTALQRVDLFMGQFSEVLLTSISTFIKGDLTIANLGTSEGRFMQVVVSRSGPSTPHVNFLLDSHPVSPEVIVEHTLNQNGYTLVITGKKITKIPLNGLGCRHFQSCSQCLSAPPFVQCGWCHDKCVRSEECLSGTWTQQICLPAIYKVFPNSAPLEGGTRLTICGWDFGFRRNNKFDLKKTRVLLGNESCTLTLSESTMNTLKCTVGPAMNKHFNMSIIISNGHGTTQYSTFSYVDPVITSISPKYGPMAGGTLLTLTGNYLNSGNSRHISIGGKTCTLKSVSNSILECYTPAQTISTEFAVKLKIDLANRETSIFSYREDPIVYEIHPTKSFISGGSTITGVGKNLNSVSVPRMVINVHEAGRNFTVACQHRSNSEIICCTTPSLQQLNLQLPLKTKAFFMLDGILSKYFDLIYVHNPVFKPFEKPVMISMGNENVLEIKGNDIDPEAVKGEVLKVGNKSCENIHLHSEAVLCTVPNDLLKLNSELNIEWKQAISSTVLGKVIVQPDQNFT

Assays:
[1] = target: recombinant human monomeric c-Met protein (human) (UniProt P08581); experiment: ELISA titration on monomeric c-Met coated at 5 µg/ml
[2] = target: recombinant human monomeric c-Met protein (human) (UniProt P08581); experiment: ELISA on monomeric c-Met protein

B1: murine 221C9 monoclonal antibody (antibody, V domains shown)
VH: QVQLQQPGAELVKPGASVKLSCKASGYTFTSYWMHWVKQRPGQGLEWIGEINPSNGRTHYNEKFRTKATLTVAKSSITAYMQLSTLTSEDSAVYYCARRVGYLMDYWGQGTSVTAPQ
VL: QIVLTQSPAIMSASPGEKVTMTCSASSSVSYMHWYQQKSGTSPKRLIYDTSKLASGVPARFSGSGSGTSYSLTISSMEAEDAATYYCQQWNSNPPTFGAGTKLELK
In the case of B1, the binding [1] is reported as “binds” and the binding [2] is reported as “binds”.
